Measurements: the supplement of paper PMC10849652
The list shows a part of the results.

Protein sequences, listed by entry. Tags and fused reporters are not part of them. Lines headed by an entry give the natural chain unless they say otherwise; changes in a name come on top.
UniProt Q8TAC1: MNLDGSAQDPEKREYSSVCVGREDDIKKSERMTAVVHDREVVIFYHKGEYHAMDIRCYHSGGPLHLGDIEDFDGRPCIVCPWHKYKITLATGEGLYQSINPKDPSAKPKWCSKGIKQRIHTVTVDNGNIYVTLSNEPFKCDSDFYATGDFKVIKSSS
UniProt Q8ND24: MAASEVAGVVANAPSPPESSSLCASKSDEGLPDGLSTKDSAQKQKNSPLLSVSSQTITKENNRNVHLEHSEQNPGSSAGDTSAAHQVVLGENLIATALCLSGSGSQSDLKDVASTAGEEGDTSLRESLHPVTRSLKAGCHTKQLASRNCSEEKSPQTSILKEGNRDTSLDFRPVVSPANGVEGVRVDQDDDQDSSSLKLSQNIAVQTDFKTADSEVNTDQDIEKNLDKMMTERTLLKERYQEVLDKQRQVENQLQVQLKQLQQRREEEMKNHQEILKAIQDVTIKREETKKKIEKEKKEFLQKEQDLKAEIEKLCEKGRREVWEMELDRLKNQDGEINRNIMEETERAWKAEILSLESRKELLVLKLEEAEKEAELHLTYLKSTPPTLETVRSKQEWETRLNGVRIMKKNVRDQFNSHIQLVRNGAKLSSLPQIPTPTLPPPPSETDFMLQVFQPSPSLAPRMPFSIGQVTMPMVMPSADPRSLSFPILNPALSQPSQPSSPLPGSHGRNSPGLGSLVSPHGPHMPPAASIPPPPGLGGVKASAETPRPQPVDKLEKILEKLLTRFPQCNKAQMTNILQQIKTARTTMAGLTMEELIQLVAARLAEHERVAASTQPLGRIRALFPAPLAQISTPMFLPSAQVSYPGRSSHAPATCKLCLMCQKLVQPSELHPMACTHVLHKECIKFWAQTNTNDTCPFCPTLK
UniProt Q9HBH5: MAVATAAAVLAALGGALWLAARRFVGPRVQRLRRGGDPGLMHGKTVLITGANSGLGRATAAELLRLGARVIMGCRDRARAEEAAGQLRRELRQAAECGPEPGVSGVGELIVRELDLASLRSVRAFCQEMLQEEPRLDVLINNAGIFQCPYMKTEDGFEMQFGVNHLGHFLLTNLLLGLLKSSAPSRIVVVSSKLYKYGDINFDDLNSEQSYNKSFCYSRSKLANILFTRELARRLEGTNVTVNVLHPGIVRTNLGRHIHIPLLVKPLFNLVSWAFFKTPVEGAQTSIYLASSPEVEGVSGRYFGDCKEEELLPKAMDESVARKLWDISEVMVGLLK
UniProt Q9BV68: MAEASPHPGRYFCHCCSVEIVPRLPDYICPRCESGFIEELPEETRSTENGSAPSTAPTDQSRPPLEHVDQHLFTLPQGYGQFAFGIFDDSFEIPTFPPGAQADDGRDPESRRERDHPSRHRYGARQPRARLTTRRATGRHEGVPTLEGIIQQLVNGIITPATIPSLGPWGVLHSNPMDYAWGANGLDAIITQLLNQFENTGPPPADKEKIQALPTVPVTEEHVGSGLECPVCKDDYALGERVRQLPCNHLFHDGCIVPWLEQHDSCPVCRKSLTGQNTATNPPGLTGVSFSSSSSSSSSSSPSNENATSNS
UniProt Q969G6: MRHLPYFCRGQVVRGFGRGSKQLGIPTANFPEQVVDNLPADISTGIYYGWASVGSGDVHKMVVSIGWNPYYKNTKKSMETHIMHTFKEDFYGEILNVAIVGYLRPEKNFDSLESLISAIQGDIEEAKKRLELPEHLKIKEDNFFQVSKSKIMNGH
UniProt P48380: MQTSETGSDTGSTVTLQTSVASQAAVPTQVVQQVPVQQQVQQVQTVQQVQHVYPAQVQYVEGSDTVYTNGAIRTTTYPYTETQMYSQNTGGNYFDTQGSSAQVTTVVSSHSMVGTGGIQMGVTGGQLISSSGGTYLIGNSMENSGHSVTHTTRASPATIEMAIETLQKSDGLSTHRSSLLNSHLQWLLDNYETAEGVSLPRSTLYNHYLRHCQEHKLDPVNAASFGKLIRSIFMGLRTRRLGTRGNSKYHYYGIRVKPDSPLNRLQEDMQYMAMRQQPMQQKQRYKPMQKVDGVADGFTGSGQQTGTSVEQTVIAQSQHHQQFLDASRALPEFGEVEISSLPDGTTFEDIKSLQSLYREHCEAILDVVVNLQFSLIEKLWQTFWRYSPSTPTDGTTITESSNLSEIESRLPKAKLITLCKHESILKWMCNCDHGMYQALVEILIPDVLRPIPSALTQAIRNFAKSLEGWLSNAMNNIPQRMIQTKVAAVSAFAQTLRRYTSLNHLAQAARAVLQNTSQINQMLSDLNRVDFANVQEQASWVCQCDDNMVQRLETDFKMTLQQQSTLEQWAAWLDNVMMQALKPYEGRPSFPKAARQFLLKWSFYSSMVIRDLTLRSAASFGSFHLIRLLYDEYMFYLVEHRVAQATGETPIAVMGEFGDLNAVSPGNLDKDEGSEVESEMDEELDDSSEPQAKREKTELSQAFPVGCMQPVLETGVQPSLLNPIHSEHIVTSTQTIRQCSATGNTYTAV
UniProt P35241, whole entry, looked up: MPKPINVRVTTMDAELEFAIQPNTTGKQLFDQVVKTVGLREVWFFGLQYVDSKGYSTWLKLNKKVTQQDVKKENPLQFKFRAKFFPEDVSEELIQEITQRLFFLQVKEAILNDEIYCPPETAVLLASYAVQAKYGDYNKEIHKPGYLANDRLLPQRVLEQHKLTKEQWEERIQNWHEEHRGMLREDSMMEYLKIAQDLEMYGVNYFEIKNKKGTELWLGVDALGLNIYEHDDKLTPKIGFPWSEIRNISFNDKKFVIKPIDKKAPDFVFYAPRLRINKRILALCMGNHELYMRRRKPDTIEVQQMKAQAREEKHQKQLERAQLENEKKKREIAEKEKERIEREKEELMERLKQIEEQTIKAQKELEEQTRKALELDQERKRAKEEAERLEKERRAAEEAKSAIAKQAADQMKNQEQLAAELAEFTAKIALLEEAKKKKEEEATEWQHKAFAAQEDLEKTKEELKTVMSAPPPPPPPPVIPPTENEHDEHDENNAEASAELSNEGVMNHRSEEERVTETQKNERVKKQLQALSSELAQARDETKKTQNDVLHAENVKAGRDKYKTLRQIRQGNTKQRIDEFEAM
UniProt P08134, whole entry, looked up: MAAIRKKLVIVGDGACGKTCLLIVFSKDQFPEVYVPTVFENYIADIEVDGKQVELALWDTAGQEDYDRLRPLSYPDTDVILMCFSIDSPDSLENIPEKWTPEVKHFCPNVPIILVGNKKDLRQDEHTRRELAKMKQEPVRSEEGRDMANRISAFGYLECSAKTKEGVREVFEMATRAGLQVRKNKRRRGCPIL
UniProt Q14257: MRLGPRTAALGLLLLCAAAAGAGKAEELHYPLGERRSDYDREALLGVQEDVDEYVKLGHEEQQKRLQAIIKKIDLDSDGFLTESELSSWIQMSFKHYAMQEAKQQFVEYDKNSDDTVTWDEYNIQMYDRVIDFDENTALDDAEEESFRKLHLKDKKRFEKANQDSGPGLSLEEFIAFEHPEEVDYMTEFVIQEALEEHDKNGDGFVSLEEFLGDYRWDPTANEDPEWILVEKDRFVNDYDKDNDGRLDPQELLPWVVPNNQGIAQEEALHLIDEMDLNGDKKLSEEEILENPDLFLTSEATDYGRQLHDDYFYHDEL
UniProt Q9H871: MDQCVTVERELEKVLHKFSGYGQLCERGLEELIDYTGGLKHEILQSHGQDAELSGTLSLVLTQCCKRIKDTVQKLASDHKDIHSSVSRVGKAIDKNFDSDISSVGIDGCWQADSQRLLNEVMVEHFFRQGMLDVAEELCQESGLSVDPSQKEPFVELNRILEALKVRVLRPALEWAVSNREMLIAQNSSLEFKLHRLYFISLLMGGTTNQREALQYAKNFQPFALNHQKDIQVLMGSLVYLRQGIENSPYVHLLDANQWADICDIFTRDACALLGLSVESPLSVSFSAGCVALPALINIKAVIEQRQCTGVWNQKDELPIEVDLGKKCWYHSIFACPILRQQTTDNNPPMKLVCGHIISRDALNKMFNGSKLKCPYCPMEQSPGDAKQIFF
UniProt Q96D71: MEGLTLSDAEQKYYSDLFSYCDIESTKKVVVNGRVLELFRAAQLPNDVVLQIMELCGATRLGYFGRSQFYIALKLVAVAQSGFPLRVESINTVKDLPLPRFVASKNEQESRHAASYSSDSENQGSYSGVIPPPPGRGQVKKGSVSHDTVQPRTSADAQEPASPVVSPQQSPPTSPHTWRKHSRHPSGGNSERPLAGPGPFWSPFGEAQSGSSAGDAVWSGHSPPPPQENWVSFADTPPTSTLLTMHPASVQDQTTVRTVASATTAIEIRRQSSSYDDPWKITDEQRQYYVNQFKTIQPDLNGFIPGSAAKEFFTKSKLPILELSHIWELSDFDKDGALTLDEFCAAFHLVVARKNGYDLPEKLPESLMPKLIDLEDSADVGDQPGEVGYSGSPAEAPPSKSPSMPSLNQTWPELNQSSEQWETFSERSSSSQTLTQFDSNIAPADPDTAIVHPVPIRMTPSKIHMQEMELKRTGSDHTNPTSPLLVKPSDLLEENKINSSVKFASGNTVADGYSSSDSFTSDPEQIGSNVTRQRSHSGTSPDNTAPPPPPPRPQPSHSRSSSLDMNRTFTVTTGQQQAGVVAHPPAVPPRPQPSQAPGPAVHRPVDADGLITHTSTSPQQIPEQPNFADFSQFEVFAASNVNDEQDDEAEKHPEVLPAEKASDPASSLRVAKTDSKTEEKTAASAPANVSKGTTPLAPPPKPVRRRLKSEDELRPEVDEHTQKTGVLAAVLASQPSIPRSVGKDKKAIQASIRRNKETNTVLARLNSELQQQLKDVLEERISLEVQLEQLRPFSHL
UniProt Q9Y508: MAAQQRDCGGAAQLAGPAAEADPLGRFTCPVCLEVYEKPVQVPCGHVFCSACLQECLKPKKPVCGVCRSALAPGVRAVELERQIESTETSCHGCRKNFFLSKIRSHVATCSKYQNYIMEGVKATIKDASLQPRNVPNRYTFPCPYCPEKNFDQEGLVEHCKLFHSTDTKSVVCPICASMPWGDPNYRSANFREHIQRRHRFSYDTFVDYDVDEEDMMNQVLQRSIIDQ
UniProt Q5TBB1: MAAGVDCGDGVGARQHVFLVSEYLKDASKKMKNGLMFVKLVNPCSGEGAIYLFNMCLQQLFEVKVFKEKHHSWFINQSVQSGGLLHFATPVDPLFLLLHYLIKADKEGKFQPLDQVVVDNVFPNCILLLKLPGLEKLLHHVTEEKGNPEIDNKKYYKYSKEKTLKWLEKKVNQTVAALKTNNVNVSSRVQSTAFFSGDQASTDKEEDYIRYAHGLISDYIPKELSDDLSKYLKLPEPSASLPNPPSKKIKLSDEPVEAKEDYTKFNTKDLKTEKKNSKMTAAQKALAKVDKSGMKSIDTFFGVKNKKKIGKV
UniProt Q8IXI2: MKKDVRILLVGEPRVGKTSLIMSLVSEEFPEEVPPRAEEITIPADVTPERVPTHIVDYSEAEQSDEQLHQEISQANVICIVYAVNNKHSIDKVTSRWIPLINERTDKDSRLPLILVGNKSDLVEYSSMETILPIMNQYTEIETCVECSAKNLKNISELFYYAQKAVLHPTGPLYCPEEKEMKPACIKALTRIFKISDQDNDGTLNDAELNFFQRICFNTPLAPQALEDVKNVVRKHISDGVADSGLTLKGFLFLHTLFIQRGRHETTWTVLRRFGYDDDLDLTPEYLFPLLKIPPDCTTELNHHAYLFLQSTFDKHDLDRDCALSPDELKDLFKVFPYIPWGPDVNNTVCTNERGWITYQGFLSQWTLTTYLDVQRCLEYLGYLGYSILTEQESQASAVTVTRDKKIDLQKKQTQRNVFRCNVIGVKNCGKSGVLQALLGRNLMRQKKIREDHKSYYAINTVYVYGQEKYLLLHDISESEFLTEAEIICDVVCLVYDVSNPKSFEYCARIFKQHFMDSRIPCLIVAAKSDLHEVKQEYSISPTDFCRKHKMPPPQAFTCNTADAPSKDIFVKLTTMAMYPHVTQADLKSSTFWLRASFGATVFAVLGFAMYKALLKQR
UniProt A6NED2: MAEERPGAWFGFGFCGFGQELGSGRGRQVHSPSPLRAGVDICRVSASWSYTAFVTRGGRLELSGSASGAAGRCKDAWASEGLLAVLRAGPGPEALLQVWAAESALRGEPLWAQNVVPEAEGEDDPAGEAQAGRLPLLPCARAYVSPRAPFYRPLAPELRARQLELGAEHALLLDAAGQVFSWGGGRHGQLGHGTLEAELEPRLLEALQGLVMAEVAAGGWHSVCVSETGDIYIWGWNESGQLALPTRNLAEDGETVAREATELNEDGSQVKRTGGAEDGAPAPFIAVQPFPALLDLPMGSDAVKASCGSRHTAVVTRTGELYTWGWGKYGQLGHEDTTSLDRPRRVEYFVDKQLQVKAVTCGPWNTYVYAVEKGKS
UniProt Q96PM5: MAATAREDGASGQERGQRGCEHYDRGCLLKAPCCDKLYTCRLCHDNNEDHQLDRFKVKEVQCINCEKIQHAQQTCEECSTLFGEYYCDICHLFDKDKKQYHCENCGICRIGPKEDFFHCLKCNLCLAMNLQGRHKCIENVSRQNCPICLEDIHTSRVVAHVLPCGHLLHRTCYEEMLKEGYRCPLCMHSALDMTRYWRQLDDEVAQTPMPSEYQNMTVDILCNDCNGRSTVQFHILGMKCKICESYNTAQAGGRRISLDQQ

Experiments:
Assay in all cases: log2 fold change, soluble protein after heating vs DMSO (PISA); higher = thermal stabilisation; K562 cells, 10 uM, 30 min; active = over 0.2 and 3.5 SD of the protein, either way, in both replicates (recomputed)
[1] = compound: CS(=O)(=O)c1ccc(-c2cnc(N)c(C(=O)Nc3ccccc3)n2)cc1
Method in brief: (§1)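 Soluble protein was quantified by TMTpro 16plex LC-MS/MS after channel sums were equalised. It was obtained as the supernatant after 21,000xg for 90 min from pooled aliquots of K562 cells (2×10^6 cells/mL, 10 μM compound, 30 min) heated for 3 min across 48°C-58°C and extracted in PBS with 0.5% NP-40 at 4°C. Thermal stability values are relative to control samples and come from duplicates. They are given as log2 fold changes.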

crizotinib = compound: C[C@@H](Oc1cc(-c2cnn(C3CCNCC3)c2)cnc1N)c1c(Cl)ccc(F)c1Cl [crizotinib]
Method in brief: as §1

[2] = compound: C[C@@H]1COCCN1C2=NC(=NC(=C2)C3(CC3)S(=O)(=O)C)C4=C5C=CNC5=CC=C4
Method in brief: as §1

[3] = compound: C[C@H](C1=CC=C(C=C1)C(=O)NC2=C3C=CNC3=NC=C2)N
Method in brief: as §1

duvelisib = compound: C[C@H](Nc1ncnc2nc[nH]c12)c1cc2cccc(Cl)c2c(=O)n1-c1ccccc1 [duvelisib]
Method in brief: as §1

gandotinib = compound: Cc1cc(Nc2cc(CN3CCOCC3)c3nc(C)c(Cc4ccc(Cl)cc4F)n3n2)n[nH]1 [gandotinib]
Method in brief: as §1

tozasertib = compound: Cc1cc(Nc2cc(N3CCN(C)CC3)nc(Sc3ccc(NC(=O)C4CC4)cc3)n2)n[nH]1 [tozasertib]
Method in brief: as §1

[4] = compound: Cc1cc(SCc2sc(-c3ccc(C(F)(F)F)cc3)nc2C)ccc1OCC(=O)O
Method in brief: as §1

doramapimod = compound: Cc1ccc(-n2nc(C(C)(C)C)cc2NC(=O)Nc2ccc(OCCN3CCOCC3)c3ccccc23)cc1 [doramapimod]
Method in brief: as §1

ispinesib = compound: Cc1ccc(C(=O)N(CCCN)[C@@H](c2nc3cc(Cl)ccc3c(=O)n2Cc2ccccc2)C(C)C)cc1 [ispinesib]
Method in brief: as §1

Measured: log2 fold change

RFESD isoform 2 (UniProt Q8TAC1)
inactive: [1] 0.014 | crizotinib -0.047 | [2] 0.088 | [3] -0.005 | duvelisib 0.067 | gandotinib -0.005 | tozasertib -0.053 | [4] 0 | doramapimod -0.102 | ispinesib 0.058

RBP5 (UniProt P82980)
inactive: [1] -0.017 | crizotinib -0.07 | [2] 0.004 | [3] -0.066 | duvelisib 0.101 | gandotinib -0.067 | tozasertib -0.049 | [4] -0.024 | doramapimod 0.249

RMND1 (UniProt Q9NWS8)
inactive: [1] 0.028 | crizotinib -0.043 | [2] 0.052 | [3] -0.006 | duvelisib 0.062 | gandotinib 0.092 | tozasertib -0.034 | [4] -0.026 | doramapimod -0.002 | ispinesib 0.042

RNF214 (UniProt Q8ND24)
inactive: [1] 0.014 | crizotinib -0.009 | [2] -0.06 | [3] 0.053 | duvelisib -0.005 | gandotinib 0.023 | tozasertib 0.027 | [4] 0.011 | doramapimod 0.008 | ispinesib -0.012

RDH14 (UniProt Q9HBH5)
inactive: [1] 0.086 | crizotinib 0.097 | [2] 0.127 | [3] -0.127 | duvelisib 0.207 | gandotinib 0.14 | tozasertib 0.025 | [4] 0.113 | doramapimod 0.007 | ispinesib 0.096

RNF126 (UniProt Q9BV68)
inactive: [1] 0.037 | crizotinib 0.105 | [2] 0.087 | [3] 0.031 | duvelisib 0.11 | gandotinib 0.142 | tozasertib 0.023 | [4] 0.015 | doramapimod -0.049 | ispinesib 0.034

RFC4 (UniProt P35249)
inactive: [1] -0.038 | crizotinib -0.065 | [2] 0.059 | [3] -0.025 | duvelisib 0.011 | gandotinib -0.026 | tozasertib -0.014 | [4] -0.022 | doramapimod -0.008 | ispinesib -0.02

REPIN1 isoform 4 (UniProt Q9BWE0)
inactive: [1] 0 | crizotinib -0.066 | [2] -0.044 | [3] 0 | duvelisib 0.002 | gandotinib 0.074 | tozasertib -0.031 | [4] -0.026 | doramapimod -0.013 | ispinesib -0.008

RMDN3 (UniProt Q96TC7)
inactive: [1] 0.06 | crizotinib -0.014 | [2] 0.053 | [3] 0.015 | duvelisib 0.04 | gandotinib -0.042 | tozasertib -0.006 | [4] 0.076 | doramapimod 0.078 | ispinesib -0.032

RCN1 (UniProt Q15293)
inactive: [1] -0.002 | crizotinib 0.057 | [2] 0.018 | [3] 0.014 | duvelisib 0.007 | gandotinib -0.01 | tozasertib -0.039 | [4] 0.004 | doramapimod -0.034 | ispinesib -0.006

RFK (UniProt Q969G6)
inactive: [1] 0.041 | crizotinib -0.027 | [2] 0.023 | [3] -0.112 | duvelisib 0.085 | gandotinib 0.072 | tozasertib 0.015 | [4] -0.01 | doramapimod -0.048 | ispinesib 0.094

RNF20 (UniProt Q5VTR2)
inactive: [1] 0.003 | crizotinib 0.1 | [2] 0.203 | [3] -0.09 | duvelisib -0.014 | gandotinib 0.094 | tozasertib 0.255 | [4] 0.235 | doramapimod 0.018 | ispinesib -0.108

RILP (UniProt Q96NA2)
inactive: [1] -0.005 | crizotinib -0.007 | [2] 0.125 | [3] -0.072 | duvelisib -0.028 | gandotinib -0.082 | tozasertib 0.023 | [4] 0.061 | doramapimod -0.007 | ispinesib 0.004

RHOG (UniProt P84095)
inactive: [1] 0.022 | crizotinib 0.062 | [2] 0.048 | [3] -0.071 | duvelisib -0.016 | gandotinib -0.04 | tozasertib 0 | [4] -0.033 | doramapimod -0.001 | ispinesib 0.09

RFX3 (UniProt P48380)
inactive: [1] 0.111

RDX (UniProt P35241)
inactive: [1] -0.024 | crizotinib 0.06 | [2] -0.082 | [3] -0.03 | duvelisib 0.019 | gandotinib 0.017 | tozasertib -0.024 | [4] -0.046 | doramapimod -0.014 | ispinesib 0.103

RIDA (UniProt P52758)
inactive: [1] 0.022 | crizotinib 0.156 | [2] 0.072 | [3] -0.1 | duvelisib 0.03 | gandotinib 0.01 | tozasertib 0.012 | [4] 0.012 | doramapimod -0.029 | ispinesib 0.118

Nine successive entries from above:
RFC4 (UniProt P35249)
inactive: [1] -0.038 | crizotinib -0.065 | [2] 0.059 | [3] -0.025 | duvelisib 0.011 | gandotinib -0.026 | tozasertib -0.014 | [4] -0.022 | doramapimod -0.008 | ispinesib -0.02

REPIN1 isoform 4 (UniProt Q9BWE0)
inactive: [1] 0 | crizotinib -0.066 | [2] -0.044 | [3] 0 | duvelisib 0.002 | gandotinib 0.074 | tozasertib -0.031 | [4] -0.026 | doramapimod -0.013 | ispinesib -0.008

RMDN3 (UniProt Q96TC7)
inactive: [1] 0.06 | crizotinib -0.014 | [2] 0.053 | [3] 0.015 | duvelisib 0.04 | gandotinib -0.042 | tozasertib -0.006 | [4] 0.076 | doramapimod 0.078 | ispinesib -0.032

RCN1 (UniProt Q15293)
inactive: [1] -0.002 | crizotinib 0.057 | [2] 0.018 | [3] 0.014 | duvelisib 0.007 | gandotinib -0.01 | tozasertib -0.039 | [4] 0.004 | doramapimod -0.034 | ispinesib -0.006

RFK (UniProt Q969G6)
inactive: [1] 0.041 | crizotinib -0.027 | [2] 0.023 | [3] -0.112 | duvelisib 0.085 | gandotinib 0.072 | tozasertib 0.015 | [4] -0.01 | doramapimod -0.048 | ispinesib 0.094

RNF20 (UniProt Q5VTR2)
inactive: [1] 0.003 | crizotinib 0.1 | [2] 0.203 | [3] -0.09 | duvelisib -0.014 | gandotinib 0.094 | tozasertib 0.255 | [4] 0.235 | doramapimod 0.018 | ispinesib -0.108

RILP (UniProt Q96NA2)
inactive: [1] -0.005 | crizotinib -0.007 | [2] 0.125 | [3] -0.072 | duvelisib -0.028 | gandotinib -0.082 | tozasertib 0.023 | [4] 0.061 | doramapimod -0.007 | ispinesib 0.004

RHOG (UniProt P84095)
inactive: [1] 0.022 | crizotinib 0.062 | [2] 0.048 | [3] -0.071 | duvelisib -0.016 | gandotinib -0.04 | tozasertib 0 | [4] -0.033 | doramapimod -0.001 | ispinesib 0.09

RFX3 (UniProt P48380)
inactive: [1] 0.111

(cont.)

RELN (UniProt P78509)
inactive: [1] -0.001 | crizotinib -0.018 | [2] -0.098 | [3] 0.138 | duvelisib -0.074 | gandotinib 0.091 | tozasertib 0.059 | [4] -0.022 | doramapimod 0.15 | ispinesib 0.042

RHOB (UniProt P62745)
inactive: [1] 0.011 | crizotinib 0.087 | [2] 0.03 | [3] -0.088 | duvelisib 0.111 | gandotinib 0.091 | tozasertib -0.088 | [4] 0.024 | doramapimod -0.16 | ispinesib 0.125

RHOC (UniProt P08134)
inactive: [1] -0.03 | crizotinib -0.005 | [2] 0.038 | [3] -0.057 | duvelisib 0.062 | gandotinib -0.059 | tozasertib -0.051 | [4] 0 | doramapimod -0.006 | ispinesib 0.074

RHOXF2B (UniProt P0C7M4)
inactive: [1] 0.203

RCN2 isoform 2 (UniProt Q14257)
inactive: [1] 0.012 | crizotinib 0.033 | [2] -0.011 | [3] 0.03 | duvelisib -0.017 | gandotinib 0.002 | tozasertib 0.045 | [4] -0.015 | doramapimod -0.009 | ispinesib -0.016

RMND5A (UniProt Q9H871)
inactive: [1] 0.002 | crizotinib 0.046 | [2] -0.036 | [3] 0.025 | duvelisib 0.024 | gandotinib -0.067 | tozasertib 0.052 | [4] 0.027 | doramapimod 0.093 | ispinesib -0.05

REPS1 (UniProt Q96D71)
inactive: [1] 0.005 | crizotinib -0.064 | [2] -0.08 | [3] 0.073 | duvelisib -0.15 | gandotinib 0.186 | tozasertib 0.062 | [4] 0.01 | doramapimod 0.247 | ispinesib -0.139

RNASEH2C (UniProt Q8TDP1)
inactive: [1] 0.145 | crizotinib -0.028 | [2] 0.167 | [3] -0.041 | duvelisib 0.081 | gandotinib -0.117 | tozasertib 0.056 | [4] 0.016 | doramapimod 0.023 | ispinesib -0.054

RBPJ (UniProt Q06330)
inactive: [1] 0.014 | crizotinib 0.09 | [2] -0.004 | [3] 0.044 | duvelisib 0.101 | gandotinib -0.066 | tozasertib -0.021 | [4] -0.017 | doramapimod -0.007 | ispinesib -0.024

RNF114 (UniProt Q9Y508)
inactive: [1] 0.036 | crizotinib 0.018 | [2] 0.053 | [3] -0.046 | duvelisib 0.089 | gandotinib 0.027 | tozasertib 0.02 | [4] 0.037 | doramapimod -0.065 | ispinesib 0.034

RNASEH2B (UniProt Q5TBB1)
inactive: [1] 0.059 | crizotinib -0.138 | [2] 0.221 | [3] -0.08 | duvelisib 0.094 | gandotinib -0.232 | tozasertib -0.008 | [4] 0.176 | doramapimod -0.044 | ispinesib -0.012

RHOT1 isoform 3 (UniProt Q8IXI2)
inactive: [1] 0.019 | crizotinib -0.066 | [2] 0.103 | [3] -0.037 | duvelisib 0.014 | gandotinib -0.089 | tozasertib -0.001 | [4] 0.009 | doramapimod -0.002 | ispinesib -0.028

RCCD1 (UniProt A6NED2)
inactive: [1] 0.04 | crizotinib 0.1 | [2] 0.013 | [3] -0.058 | duvelisib 0.072 | gandotinib -0.078 | tozasertib -0.043 | [4] -0.028 | doramapimod -0.199 | ispinesib 0

RCHY1 (UniProt Q96PM5)
inactive: [1] -0.01 | crizotinib 0.106 | [2] 0.021 | [3] -0.116 | duvelisib -0.013 | gandotinib 0.255 | tozasertib 0.041 | [4] 0.008 | doramapimod -0.037 | ispinesib 0.016
